Results as given in US12065471B2, “B*44 restricted peptides for use in immunotherapy against cancers and related methods” (Immatics Biotechnologies GmbH, priority 2018, dated 2024).

Tested on: HLA molecules of primary tumor and normal tissue samples
Test: Identification and quantitation of tumor associated peptides presented on the cell surface (HLA immunoprecipitation, label-free LC-MS)
Set-up: species or system human
Conditions: for Peptide Presentation on cancer entities: cancer entities on which the peptide was found presented (HLA immunoprecipitation, LC-MS), abbreviations in table footnotes; for over-presentation of peptide in cancer tissues (median MS signal intensities, detection frequency): HLA-B*44 positive normal (N=124) vs tumor samples (N=159), FIGS. 1A-1M; for presentation on cancer entities: tumor tissue samples, LC-MS

Row | Substance | Peptide Presentation on cancer entities | also measured
1 | 400 (TELGLFGVW; listed as Homo sapiens) [compound 400] | HNSCC, NSCLCadeno | 
2 | 401 (VENIFHNF; listed as Homo sapiens) [compound 401] | BRCA, GC, HCC, MEL, NSCLCadeno, NSCLCsquam, OSCAR | 
3 | 402 (IETSSEYFNF; listed as Homo sapiens) [compound 402] | BRCA, CRC, HNSCC, NHL, NSCLCadeno, NSCLCsquam, OSCAR, PACA, UBC, UEC | 
4 | 404 (AEREQVIKL; listed as Homo sapiens) [compound 404] | AML | 
5 | 405 (YEHAFNSIVW; listed as Homo sapiens) [compound 405] | RCC | 
6 | 407 (MEFQNTQSY; listed as Homo sapiens) [compound 407] | BRCA, CLL, GC, HNSCC, MEL, NHL, NSCLCadeno, NSCLCsquam, OSCAR | 
7 | 408 (AFSLLSAAFY; listed as Homo sapiens) [compound 408] | NSCLCsquam | 
8 | 409 (QEAKPRATW; listed as Homo sapiens) [compound 409] | BRCA, CCC, CLL, CRC, GBC, GC, HCC, NHL, NSCLCadeno, NSCLCsquam, PRCA, UBC | 
9 | 410 (RELEEEFYSL; listed as Homo sapiens) [compound 410] | CLL | 
10 | 411 (AERDLNVTI; listed as Homo sapiens) [compound 411] | NSCLCadeno, PACA | 
11 | 412 (EESFDSKFY; listed as Homo sapiens) [compound 412] | CLL, CRC, HNSCC, NHL, NSCLCadeno, NSCLCsquam, PACA | 
12 | 414 (AEGYLDLDGI; listed as Homo sapiens) [compound 414] | NSCLCadeno | 
13 | 415 (EEAGFPLAY; listed as Homo sapiens) [compound 415] | HNSCC | 
14 | 416 (DELMRKESQW; listed as Homo sapiens) [compound 416] | CLL, CRC, MEL, NHL, NSCLCsquam, UBC, UEC | 
15 | 417 (EESFRCLPEW; listed as Homo sapiens) [compound 417] | NHL | 
16 | 418 (GEPRKLLTQDW; listed as Homo sapiens) [compound 418] | HNSCC, NSCLCadeno | 
17 | 421 (TEDYSKQAL; listed as Homo sapiens) [compound 421] | CCC, NSCLCsquam, UBC | 
18 | 422 (EEAQWVRKYF; listed as Homo sapiens) [compound 422] | CLL, CRC, NHL, UBC | 
19 | 423 (KEAINLLKNY; listed as Homo sapiens) [compound 423] | BRCA, CLL, HNSCC, NHL | 
20 | 424 (EEHVYESIIRW; listed as Homo sapiens) [compound 424] | CLL, CRC, NHL | 
21 | 425 (KEVDPASNTY; listed as Homo sapiens) [compound 425] | OSCAR | 
22 | 426 (AESLFREAL; listed as Homo sapiens) [compound 426] | HNSCC, NSCLCsquam | 
23 | 427 (AEMLGSVVGNW; listed as Homo sapiens) [compound 427] | NSCLCadeno | 
24 | 429 (RETEDYSKQAL; listed as Homo sapiens) [compound 429] | CCC, NSCLCsquam | 
25 | 430 (RELARVVTL; listed as Homo sapiens) [compound 430] | SCLC | 
26 | 431 (QELLDFTNW; listed as Homo sapiens) [compound 431] | SCLC | 

Row | Substance | Peptide Presentation on cancer entities | also measured
27 | 433 (AEEGPSVPKIY; listed as Homo sapiens) [compound 433] | CLL, NHL | 
28 | 434 (AEQQQQQMY; listed as Homo sapiens) [compound 434] | NHL | 
29 | 435 (FETEQALRL; listed as Homo sapiens) [compound 435] | NSCLCadeno, NSCLCsquam, PACA, UBC | 
30 | 436 (AEADLSYTWDF; listed as Homo sapiens) [compound 436] | MEL | 
31 | 437 (HEDPSGSLHL; listed as Homo sapiens) [compound 437] | BRCA, UBC | 
32 | 438 (AELDSKILAL; listed as Homo sapiens) [compound 438] | BRCA, NSCLCsquam, OC | 
33 | 439 (VEVGDRTDW; listed as Homo sapiens) [compound 439] | NHL | 
34 | 440 (QEVAQVASA; listed as Homo sapiens) [compound 440] | HNSCC | 
35 | 441 (QEVAQVASAIL; listed as Homo sapiens) [compound 441] | CCC, NSCLCsquam, UBC | 
36 | 442 (KESDAGKYY; listed as Homo sapiens) [compound 442] | CLL | 
37 | 443 (EEYAGQITL; listed as Homo sapiens) [compound 443] | CLL | 
38 | 444 (SESALQTVI; listed as Homo sapiens) [compound 444] | CCC, NSCLCadeno, UBC | 
39 | 445 (QEVGEITNL; listed as Homo sapiens) [compound 445] | CCC, NSCLCsquam, UBC | 
40 | 448 (ALSPVPSHW; listed as Homo sapiens) [compound 448] | CLL, NHL | 
41 | 449 (RENDFEPKF; listed as Homo sapiens) [compound 449] | NHL | 
42 | 450 (REIENGNSF; listed as Homo sapiens) [compound 450] | AML, CRC, GBC, HNSCC, NSCLCadeno, NSCLCsquam, PACA | 
43 | 452 (NEVDGEYRY; listed as Homo sapiens) [compound 452] | BRCA, CCC, CRC, GBC, GC, HCC, HNSCC, MEL, NHL, NSCLCadeno, NSCLCsquam, OC, OSCAR, PACA, PRCA, RCC, UBC, UEC | 
44 | 453 (SESKVFQLL; listed as Homo sapiens) [compound 453] | BRCA, CCC, CRC, HCC, HNSCC, NHL, NSCLCadeno, NSCLCsquam, OSCAR, PACA | 
45 | 454 (SESSSAFQF; listed as Homo sapiens) [compound 454] | MEL, NHL | 
46 | AEALGAAKKL (listed as Homo sapiens) [SEQ ID NO: 4] |  | over-presentation of peptide in cancer tissues (median MS signal intensities, detection frequency): over-presentation
47 | AEKNRRDAETW (listed as Homo sapiens) [SEQ ID NO: 305] |  | over-presentation of peptide in cancer tissues (median MS signal intensities, detection frequency): over-presentation
48 | DEIFTNDRRW (listed as Homo sapiens) [SEQ ID NO: 3] |  | over-presentation of peptide in cancer tissues (median MS signal intensities, detection frequency): over-presentation
49 | EECDKAYSF (listed as Homo sapiens) [SEQ ID NO: 364] |  | over-presentation of peptide in cancer tissues (median MS signal intensities, detection frequency): over-presentation
50 | EEFLRPRSL (listed as Homo sapiens) [SEQ ID NO: 2] |  | presentation on cancer entities: prostate cancer (PRCA)
51 | MEHSDENIQFW (listed as Homo sapiens) [SEQ ID NO: 19] |  | over-presentation of peptide in cancer tissues (median MS signal intensities, detection frequency): over-presentation
52 | NESDRLVYF (listed as Homo sapiens) [SEQ ID NO: 16] |  | over-presentation of peptide in cancer tissues (median MS signal intensities, detection frequency): over-presentation; presentation on cancer entities: gallbladder cancer (GBC), melanoma (MEL), and non-Hodgkin lymphoma (NHL)
